From US20100040606A1
No constants are given. Whether binding was seen depends on the method and setting. Binding calls can cover weak binding; strength is not graded here.

B1: antibody from clone 814 (antibody, V domains shown)
VH: QVQLVESGGGVVQPGKSVRLSCVGSGFRLMDYAMHWVRQAPGKGLDWVAVISYDGANEYYAESVKGRFTVSRDNSDNTLYLQMKSLRAEDTAVYFCARAGRSSMNEEVIMYFDNWGLGTLVTVSS
VL: DIQMTQSPSTLSASVGDRVTITCRASQSIGSRLAWYQQQPGKAPKFLIYDASSLESGVPSRFSGSGSGTEFTLTISSLQPEDLATYYCQQYNRDSPWTFGQGTKVEIKR
B2: antibody from clone 855 (antibody, human IgG1, kappa, V domains shown)
VH: QVQLVQSGPEVKKPGASVKVSCKASGYVLTNYAFSWVRQAPGQGLEWLGWISGSNGNTYYAEKFQGRVTMTTDTSTSTAYMELRSLRSDDTAVYFCARDLLRSTYFDYWGQGTLVTVSS
VL: DIQMTQSPSSVSASVGDRVTITCRASQAISNWLAWYQQKPGKAPKLLIYAASSLQSGVPSRFSGSGSGTDFTLTISGLQPEDFATYYCQQADTFPFTFGPGTKVDIKR
B3: antibody from clone 811 (antibody, V domains shown)
VH: QVQLVQSGAVVETPGASVKVSCKASGYIFGNYYIHWVRQAPGQGLEWMAVINPNGGSTTSAQKFQDRITVTRDTSTTTVYLEVDNLRSEDTATYYCARQRSVTGGFDAWLLIPDASNTWGQGTMVTVSS
VL: DIVMTQSPDSLAVSLGERATINCRSSETVLYTSKNQSYLAWYQQKARQPPKLLLYWASTRESGVPARFSGSGSGTDFTLAISSLQAEDVAVYYCQQFFRSPFTFGPGTRLEIKR
B4: antibody from clone 853 (antibody, human IgG1, kappa, V domains shown)
VH: EVQLVQSGAEVKKPGQSLKISCKTSGYIFTNYWIGWVRQRPGKGLEWMGVIFPADSDARYSPSFQGQVTISADKSIGTAYLQWSSLKASDTAIYYCARPKYYFDSSGQFSEMYYFDFWGQGTLVTVSS
VL: EIVLTQSPGTLSLSPGERATLSCRASQSVSSNYLAWYQQKPGQAPRLLIYGASSRAAGMPDRFSGSGSGTDFTLTISRLEPEDFAVYYCQQYGNSPLTFGGGTEVEIKR
B5: antibody from clone 816 (antibody, human IgG1, kappa, V domains shown)
VH: EVQLLESGGGLVQPGGSLRLSCVASGFTFSTYAMTWVRQAPGKGLEWVSVIRASGDSEIYADSVRGRFTISRDNSKNTVFLQMDSLRVEDTAVYFCANIGQRRYCSGDHCYGHFDYWGQGTLVTVSS
VL: DIVMTQSPLSLPVTPGEPASISCRSSQSLLHSDGRYYVDWYLQKPGQSPHLLIYLASNRASGVPDRFTGSGSGTDFTLKISRVEAEDVGVYYCMQGLHTPWTFGQGTKVDIKR
B6: antibody from clone 830 (antibody, V domains shown)
VH: QVQLVQSGAEVKVPGASVKVSCKASGYTFTTYGVSWVRQAPGQGLEWMGWISAYNGNTYYLQKLQGRVTMTTDTSTSTAYMELRGLRSDDTAMYYCARDRVGGSSSEVLSRAKNYGLDVWGQGTTVTVSS
VL: DIQMTQSPSTLSASVGDRVTITCRASQSVTSELAWYQQKPGKAPNFLIYKASSLESGVPSRFSGSGSGTEFTLTISSLQPDDFATYYCQQYNSFPYTFGQGTKLEIKR
B7: antibody from clone 859 (antibody, V domains shown)
VH: QVQLVESGGGVVQPGRSLRLSCAVSGSSFSKYGIHWVRQAPGKGLEWVAVISYDGSKKYFTDSVKGRFTIARDNSQNTVFLQMNSLRAEDTAVYYCATGGGVNVTSWSDVEHSSSLGYWGLGTLVTVSS
VL: DIQMTQSPSSLSASVGDRVTITCRASQGIRNYLAWYQQKPGKVPKLLVFAASTLQSGVPSRFSGSGSGTDFTLTISSLQPEDVATYYCQRYNSAPLTFGGGTKVEIKR
B8: antibody from clone 835 (antibody, human IgG1, kappa, V domains shown)
VH: QVQLVQSGAEVKRPGASVKVSCKASGYTFISYGFSWVRQAPGQGLEWMGWSSVYNGDTNYAQKFHGRVNMTTDTSTNTAYMELRGLRSDDTAVYFCARDRNVVLLPAAPFGGMDVWGQGTMVTVSS
VL: DIQLTQSPSFLSASLEDRVTITCRASQGISSYLAWYQQKPGKAPKLLLDAASTLQSGVPSRFSGSGSGTEFTLTISSLQPEDFATYYCQQLNSYPRTFGQGTKVDIKR

Target: RSV G protein (receptor-binding glycoprotein) (human respiratory syncytial virus, strain not stated per clone)
Assay: ELISA, FLISA and/or Biacore

Binder	binding
B1	binds
B2	binds
B3	binds
B4	binds
B5	binds
B6	binds
B7	binds
B8	binds
